Measurements taken from the supplement of paper PMC12823440, “Inhibitors supercharge kinase turnover through native proteolytic circuits” (Nature, 2025).
The other results are listed elsewhere or left out. Hit calls seldom repeat between salt and free forms of one compound.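 Kinases were expressed as nanoluciferase fusions in K562 cells and luminescence was read every 4 h between 2 and 18 h as percent of control, DMSO set to 100% and a positive control to 0%. A time point counts as decreased when the signal drops significantly (2 sigma). The hit call is the authors' own, does not follow from the count of time points alone, and its rule is not shown.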

The chains behind the UniProt entries cited, without tags or fusion partners. Where a name states a change or a piece, a line headed by the entry shows the natural chain unless it says otherwise.
UniProt Q9Y616: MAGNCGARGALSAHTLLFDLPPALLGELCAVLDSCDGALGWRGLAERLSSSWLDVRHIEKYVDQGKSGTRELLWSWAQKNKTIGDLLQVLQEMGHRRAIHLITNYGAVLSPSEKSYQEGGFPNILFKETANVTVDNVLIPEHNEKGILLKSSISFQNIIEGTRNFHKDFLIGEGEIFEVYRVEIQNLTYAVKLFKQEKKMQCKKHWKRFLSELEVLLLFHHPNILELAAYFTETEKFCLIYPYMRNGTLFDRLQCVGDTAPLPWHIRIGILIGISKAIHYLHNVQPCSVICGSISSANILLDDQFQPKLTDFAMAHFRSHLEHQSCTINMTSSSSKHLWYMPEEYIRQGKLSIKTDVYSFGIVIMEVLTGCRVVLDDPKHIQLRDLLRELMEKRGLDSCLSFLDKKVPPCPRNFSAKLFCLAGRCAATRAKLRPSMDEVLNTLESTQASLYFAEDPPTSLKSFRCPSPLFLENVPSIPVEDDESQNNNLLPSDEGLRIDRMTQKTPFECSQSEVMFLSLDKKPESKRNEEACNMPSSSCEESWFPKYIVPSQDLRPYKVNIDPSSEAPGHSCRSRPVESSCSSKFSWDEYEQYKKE
UniProt P23458: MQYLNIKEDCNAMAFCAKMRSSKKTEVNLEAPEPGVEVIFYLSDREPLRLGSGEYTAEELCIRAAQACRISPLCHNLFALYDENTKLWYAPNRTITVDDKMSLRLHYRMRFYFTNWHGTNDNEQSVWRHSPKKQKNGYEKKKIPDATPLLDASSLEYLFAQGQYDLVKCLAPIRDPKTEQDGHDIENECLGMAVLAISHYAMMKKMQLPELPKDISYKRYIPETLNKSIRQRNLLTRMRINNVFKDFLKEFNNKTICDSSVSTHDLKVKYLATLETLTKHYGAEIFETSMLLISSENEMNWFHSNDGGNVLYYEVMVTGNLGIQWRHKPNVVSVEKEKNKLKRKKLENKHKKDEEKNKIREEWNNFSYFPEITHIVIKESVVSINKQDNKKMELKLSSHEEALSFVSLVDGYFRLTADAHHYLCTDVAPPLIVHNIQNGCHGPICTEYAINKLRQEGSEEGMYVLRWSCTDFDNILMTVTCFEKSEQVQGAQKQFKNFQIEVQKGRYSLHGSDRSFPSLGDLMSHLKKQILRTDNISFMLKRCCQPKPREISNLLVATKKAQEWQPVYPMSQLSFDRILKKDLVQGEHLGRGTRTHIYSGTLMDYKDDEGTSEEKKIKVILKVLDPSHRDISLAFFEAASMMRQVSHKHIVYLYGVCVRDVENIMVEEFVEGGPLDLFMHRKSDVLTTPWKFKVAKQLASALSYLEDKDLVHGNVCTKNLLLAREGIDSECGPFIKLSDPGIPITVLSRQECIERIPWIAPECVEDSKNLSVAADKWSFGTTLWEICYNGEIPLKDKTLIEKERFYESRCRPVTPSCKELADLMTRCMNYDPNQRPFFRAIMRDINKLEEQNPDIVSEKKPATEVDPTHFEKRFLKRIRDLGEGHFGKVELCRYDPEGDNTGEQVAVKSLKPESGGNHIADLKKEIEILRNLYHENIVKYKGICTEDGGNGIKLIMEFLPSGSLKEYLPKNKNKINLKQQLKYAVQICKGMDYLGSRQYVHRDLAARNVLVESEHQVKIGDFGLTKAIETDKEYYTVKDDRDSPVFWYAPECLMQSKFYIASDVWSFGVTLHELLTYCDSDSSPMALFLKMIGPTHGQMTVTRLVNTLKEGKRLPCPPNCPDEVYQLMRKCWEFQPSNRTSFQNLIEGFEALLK
UniProt P06239: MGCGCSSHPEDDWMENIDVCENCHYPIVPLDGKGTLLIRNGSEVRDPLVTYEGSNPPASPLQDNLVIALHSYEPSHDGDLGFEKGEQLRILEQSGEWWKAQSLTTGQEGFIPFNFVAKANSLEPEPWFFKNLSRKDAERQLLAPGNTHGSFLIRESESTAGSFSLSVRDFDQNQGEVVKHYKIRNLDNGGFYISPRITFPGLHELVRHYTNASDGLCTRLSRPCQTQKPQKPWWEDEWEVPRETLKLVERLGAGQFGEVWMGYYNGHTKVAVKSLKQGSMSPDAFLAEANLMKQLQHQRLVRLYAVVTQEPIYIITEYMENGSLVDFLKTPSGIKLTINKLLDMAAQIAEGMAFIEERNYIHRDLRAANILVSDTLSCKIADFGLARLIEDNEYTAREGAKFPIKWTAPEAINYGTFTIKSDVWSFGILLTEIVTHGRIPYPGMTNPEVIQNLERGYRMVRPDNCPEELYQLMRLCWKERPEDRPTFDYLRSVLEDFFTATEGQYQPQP
UniProt P53667: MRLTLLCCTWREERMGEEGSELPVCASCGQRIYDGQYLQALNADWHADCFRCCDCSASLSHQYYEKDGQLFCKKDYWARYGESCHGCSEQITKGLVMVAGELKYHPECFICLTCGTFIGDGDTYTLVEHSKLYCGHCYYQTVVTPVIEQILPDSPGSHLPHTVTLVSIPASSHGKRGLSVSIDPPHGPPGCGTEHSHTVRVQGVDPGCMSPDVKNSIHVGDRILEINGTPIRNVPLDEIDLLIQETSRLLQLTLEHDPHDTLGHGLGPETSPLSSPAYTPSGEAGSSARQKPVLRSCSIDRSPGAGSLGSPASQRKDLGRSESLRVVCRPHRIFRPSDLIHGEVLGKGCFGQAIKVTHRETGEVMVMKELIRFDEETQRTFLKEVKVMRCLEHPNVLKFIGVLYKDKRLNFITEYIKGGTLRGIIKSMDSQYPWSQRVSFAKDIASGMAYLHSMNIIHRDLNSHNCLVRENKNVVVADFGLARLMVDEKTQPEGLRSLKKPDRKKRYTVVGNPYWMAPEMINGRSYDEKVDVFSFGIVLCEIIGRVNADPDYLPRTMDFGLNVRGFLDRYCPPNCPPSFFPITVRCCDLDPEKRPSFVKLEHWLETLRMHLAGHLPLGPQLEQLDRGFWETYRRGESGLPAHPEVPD
UniProt P53671: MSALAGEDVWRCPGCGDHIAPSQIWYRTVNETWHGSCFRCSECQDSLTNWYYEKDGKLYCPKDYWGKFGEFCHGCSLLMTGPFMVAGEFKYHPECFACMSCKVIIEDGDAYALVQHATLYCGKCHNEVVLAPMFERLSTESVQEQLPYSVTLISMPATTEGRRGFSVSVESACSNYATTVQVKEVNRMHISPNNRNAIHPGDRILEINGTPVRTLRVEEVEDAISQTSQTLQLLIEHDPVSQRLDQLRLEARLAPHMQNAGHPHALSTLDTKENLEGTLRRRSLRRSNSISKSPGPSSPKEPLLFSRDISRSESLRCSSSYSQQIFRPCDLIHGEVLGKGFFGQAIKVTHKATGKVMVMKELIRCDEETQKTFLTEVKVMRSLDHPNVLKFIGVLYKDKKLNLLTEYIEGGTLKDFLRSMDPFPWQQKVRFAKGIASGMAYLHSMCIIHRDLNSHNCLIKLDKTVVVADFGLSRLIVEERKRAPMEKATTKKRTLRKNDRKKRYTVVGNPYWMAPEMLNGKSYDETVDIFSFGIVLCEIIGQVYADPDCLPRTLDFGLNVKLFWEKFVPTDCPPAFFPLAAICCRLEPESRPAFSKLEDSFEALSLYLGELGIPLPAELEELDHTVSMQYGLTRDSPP
UniProt Q8IWU2: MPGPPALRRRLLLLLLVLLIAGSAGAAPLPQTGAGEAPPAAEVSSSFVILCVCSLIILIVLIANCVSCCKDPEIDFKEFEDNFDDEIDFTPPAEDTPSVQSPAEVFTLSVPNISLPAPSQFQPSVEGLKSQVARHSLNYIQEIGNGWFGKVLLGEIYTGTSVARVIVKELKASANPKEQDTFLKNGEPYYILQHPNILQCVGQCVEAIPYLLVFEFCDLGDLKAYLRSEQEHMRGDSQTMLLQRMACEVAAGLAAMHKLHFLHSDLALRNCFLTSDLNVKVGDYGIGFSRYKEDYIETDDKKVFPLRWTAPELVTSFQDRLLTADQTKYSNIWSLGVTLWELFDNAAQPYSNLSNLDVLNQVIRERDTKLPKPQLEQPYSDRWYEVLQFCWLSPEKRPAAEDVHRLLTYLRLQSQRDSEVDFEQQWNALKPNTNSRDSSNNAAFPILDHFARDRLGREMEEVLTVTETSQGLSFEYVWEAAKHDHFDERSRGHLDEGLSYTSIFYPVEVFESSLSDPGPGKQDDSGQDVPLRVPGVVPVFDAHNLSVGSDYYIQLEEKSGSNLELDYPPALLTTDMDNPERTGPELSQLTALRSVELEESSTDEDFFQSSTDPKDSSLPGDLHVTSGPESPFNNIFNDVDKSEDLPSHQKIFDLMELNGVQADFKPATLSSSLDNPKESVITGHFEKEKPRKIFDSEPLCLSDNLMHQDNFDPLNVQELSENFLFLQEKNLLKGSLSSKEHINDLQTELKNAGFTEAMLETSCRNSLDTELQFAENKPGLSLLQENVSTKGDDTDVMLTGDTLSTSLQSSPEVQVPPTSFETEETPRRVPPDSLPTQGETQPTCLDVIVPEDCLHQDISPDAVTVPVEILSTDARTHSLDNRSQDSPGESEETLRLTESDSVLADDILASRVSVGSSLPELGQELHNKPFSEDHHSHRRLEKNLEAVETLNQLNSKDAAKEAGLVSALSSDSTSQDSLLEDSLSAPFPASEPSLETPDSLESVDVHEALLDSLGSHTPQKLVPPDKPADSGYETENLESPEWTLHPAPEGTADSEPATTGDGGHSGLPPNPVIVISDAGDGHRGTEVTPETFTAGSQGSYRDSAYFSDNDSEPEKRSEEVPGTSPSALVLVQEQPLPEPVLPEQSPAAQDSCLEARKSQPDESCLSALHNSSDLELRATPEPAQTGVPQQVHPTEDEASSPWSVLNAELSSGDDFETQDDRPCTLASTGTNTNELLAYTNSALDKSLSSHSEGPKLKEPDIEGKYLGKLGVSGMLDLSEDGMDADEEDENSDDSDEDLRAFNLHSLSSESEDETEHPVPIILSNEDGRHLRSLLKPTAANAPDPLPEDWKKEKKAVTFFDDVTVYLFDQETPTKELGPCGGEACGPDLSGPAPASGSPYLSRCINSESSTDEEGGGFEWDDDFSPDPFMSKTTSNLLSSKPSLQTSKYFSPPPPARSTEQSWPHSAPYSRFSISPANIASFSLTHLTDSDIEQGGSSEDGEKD
UniProt P07948: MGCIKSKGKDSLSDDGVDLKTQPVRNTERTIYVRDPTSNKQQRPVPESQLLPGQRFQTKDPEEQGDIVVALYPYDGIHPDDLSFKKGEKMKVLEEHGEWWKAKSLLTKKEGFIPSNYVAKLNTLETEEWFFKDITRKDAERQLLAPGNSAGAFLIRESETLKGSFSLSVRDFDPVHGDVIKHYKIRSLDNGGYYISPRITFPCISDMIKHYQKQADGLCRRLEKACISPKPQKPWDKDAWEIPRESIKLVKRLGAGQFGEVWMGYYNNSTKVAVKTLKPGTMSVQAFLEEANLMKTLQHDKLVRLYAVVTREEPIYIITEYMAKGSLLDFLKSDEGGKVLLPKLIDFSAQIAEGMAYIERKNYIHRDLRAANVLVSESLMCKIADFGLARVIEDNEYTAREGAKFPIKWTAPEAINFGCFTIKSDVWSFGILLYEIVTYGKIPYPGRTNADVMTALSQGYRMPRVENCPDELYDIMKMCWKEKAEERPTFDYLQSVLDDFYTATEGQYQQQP
UniProt Q12851: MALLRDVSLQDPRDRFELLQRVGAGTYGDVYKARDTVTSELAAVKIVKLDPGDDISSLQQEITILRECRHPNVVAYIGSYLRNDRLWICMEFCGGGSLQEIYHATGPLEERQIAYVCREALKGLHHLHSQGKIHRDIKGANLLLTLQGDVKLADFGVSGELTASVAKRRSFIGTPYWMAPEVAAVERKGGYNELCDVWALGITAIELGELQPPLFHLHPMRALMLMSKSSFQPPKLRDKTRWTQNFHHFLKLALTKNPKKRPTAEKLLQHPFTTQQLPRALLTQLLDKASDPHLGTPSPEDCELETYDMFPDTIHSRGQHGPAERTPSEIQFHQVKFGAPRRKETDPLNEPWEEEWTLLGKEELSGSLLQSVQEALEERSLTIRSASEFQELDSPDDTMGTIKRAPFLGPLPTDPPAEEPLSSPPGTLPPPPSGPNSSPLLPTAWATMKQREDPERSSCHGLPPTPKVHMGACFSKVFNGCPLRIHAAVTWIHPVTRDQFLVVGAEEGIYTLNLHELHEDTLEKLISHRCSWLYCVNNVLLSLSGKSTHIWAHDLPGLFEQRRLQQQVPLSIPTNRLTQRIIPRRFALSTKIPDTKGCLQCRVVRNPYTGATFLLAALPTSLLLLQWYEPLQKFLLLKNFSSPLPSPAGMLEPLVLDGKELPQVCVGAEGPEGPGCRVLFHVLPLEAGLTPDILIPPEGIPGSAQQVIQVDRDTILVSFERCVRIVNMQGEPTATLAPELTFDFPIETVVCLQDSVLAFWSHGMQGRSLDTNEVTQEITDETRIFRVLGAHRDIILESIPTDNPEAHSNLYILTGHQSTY

Assays:
Test in all cases: kinase-Nluc reporter destabilization hit call (1 = scored as downregulated) (binary); higher = compound decreases kinase abundance
Details in all cases: K562; 2-18 h
IRAK3 = IRAK3 (UniProt Q9Y616)
JAK1 = JAK1 (UniProt P23458)
LCK = LCK (UniProt P06239)
LIMK1 = LIMK1 (UniProt P53667)
LIMK2 = LIMK2 (UniProt P53671)
LMTK2 = LMTK2 (UniProt Q8IWU2)
LYN = LYN (UniProt P07948)
MAP2K1 = MAP2K1 (UniProt Q02750)
MAP2K2 = MAP2K2 (UniProt P36507)
MAP4K2 = MAP4K2 (UniProt Q12851)

SMILES	kinase-Nluc reporter destabilization hit call (IRAK3)	kinase-Nluc reporter destabilization hit call (JAK1)	kinase-Nluc reporter destabilization hit call (LCK)	kinase-Nluc reporter destabilization hit call (LIMK1)	kinase-Nluc reporter destabilization hit call (LIMK2)	kinase-Nluc reporter destabilization hit call (LMTK2)	kinase-Nluc reporter destabilization hit call (LYN)	kinase-Nluc reporter destabilization hit call (MAP2K1)	kinase-Nluc reporter destabilization hit call (MAP2K2)	kinase-Nluc reporter destabilization hit call (MAP4K2)
CN(C)c1nc2c(Br)c(Br)c(Br)c(Br)c2n1CC(=O)O (10 µM)	inactive: 0	inactive: 0	inactive: 0	inactive: 0	inactive: 0	inactive: 0	inactive: 0	inactive: 0	inactive: 0	inactive: 0
Oc1ccccc1C(=S)N1CCCC1 (10 µM)	inactive: 0	inactive: 0	inactive: 0	inactive: 0	inactive: 0	inactive: 0	inactive: 0	inactive: 0	inactive: 0	inactive: 0
CC[C@@H]1C(=O)N(C)c2cnc(Nc3ccc(C(=O)N[C@H]4CC[C@H](N5CCN(CC6CC6)CC5)CC4)cc3OC)nc2N1C(C)C [Volasertib] (2.5 µM)	inactive: 0	inactive: 0	inactive: 0	inactive: 0	inactive: 0	inactive: 0	inactive: 0	inactive: 0	inactive: 0	inactive: 0
O=C(c1ccc(Nc2nccc(-c3cc4ccccc4s3)n2)cc1)N1CCC(N2CCCC2)CC1 (2.5 µM)	inactive: 0	inactive: 0	inactive: 0	inactive: 0	inactive: 0	inactive: 0	inactive: 0	inactive: 0	inactive: 0	inactive: 0
O=C(O)c1cc(O)c2c(c1)[C@@H]([C@H]1c3cc(C(=O)O)cc(O)c3C(=O)c3c(O[C@@H]4O[C@H](CO)[C@@H](O)[C@H](O)[C@H]4O)cccc31)c1cccc(O[C@@H]3O[C@H](CO)[C@@H](O)[C@H](O)[C@H]3O)c1C2=O [Sennoside B] (2.5 µM)	inactive: 0	inactive: 0	inactive: 0	inactive: 0	inactive: 0	inactive: 0	inactive: 0	inactive: 0	inactive: 0	inactive: 0
O=C1NCCCc2c1oc1ccc(O)cc21 (10 µM)	inactive: 0	inactive: 0	inactive: 0	inactive: 0	inactive: 0	inactive: 0	inactive: 0	inactive: 0	inactive: 0	inactive: 0
C=C[C@H]1[C@H](O[C@@H]2O[C@H](CO)[C@@H](O)[C@H](O)[C@H]2OC(=O)c2c(O)cc(O)cc2-c2cccc(O)c2)OC=C2C(=O)OCC[C@H]21 [Amarogentin] (10 µM)	inactive: 0	inactive: 0	inactive: 0	inactive: 0	inactive: 0	inactive: 0	inactive: 0	inactive: 0	inactive: 0	inactive: 0
N#C/C(=C(/N)Sc1ccc(N)cc1)c1ccccc1C(F)(F)F (10 µM)	inactive: 0	inactive: 0	inactive: 0	inactive: 0	inactive: 0	inactive: 0	inactive: 0	inactive: 0	inactive: 0	inactive: 0
O=[N+]([O-])c1ccc(Sc2cccc[n+]2[O-])c2nonc12 (2.5 µM)	inactive: 0	inactive: 0	inactive: 0	inactive: 0	inactive: 0	inactive: 0	inactive: 0	inactive: 0	inactive: 0	inactive: 0
O=C(O)c1ccccc1Nc1cccc(C(F)(F)F)c1 [Flufenamic acid] (10 µM)	inactive: 0	inactive: 0	inactive: 0	inactive: 0	inactive: 0	inactive: 0	inactive: 0	inactive: 0	inactive: 0	inactive: 0
Cc1cc(Nc2nc(N[C@@H](C)c3ncc(F)cn3)ncc2Cl)[nH]n1 (10 µM)	inactive: 0	inactive: 0	inactive: 0	inactive: 0	inactive: 0	inactive: 0	inactive: 0	inactive: 0	inactive: 0	inactive: 0
COc1c(C)c(C(=O)c2ccc(N)c(C(=O)O)c2)n2ccccc12 (10 µM)	inactive: 0	inactive: 0	inactive: 0	inactive: 0	inactive: 0	inactive: 0	inactive: 0	inactive: 0	inactive: 0	inactive: 0
Cc1ccc(-c2nn(C(C)(C)CNC(=O)c3ccncc3)c3ncnc(N)c23)cc1 (2.5 µM)	inactive: 0	inactive: 0	inactive: 0	inactive: 0	inactive: 0	inactive: 0	inactive: 0	inactive: 0	inactive: 0	inactive: 0
CC(=O)NCCc1c[nH]c2ccc(O)cc12 [N-Acetyl-5-hydroxytryptamine] (10 µM)	inactive: 0	inactive: 0	inactive: 0	inactive: 0	inactive: 0	inactive: 0	inactive: 0	inactive: 0	inactive: 0	inactive: 0
COc1cc(C(C)=O)cc(OC)c1O [Acetosyringone] (10 µM)	inactive: 0	inactive: 0	inactive: 0	inactive: 0	inactive: 0	inactive: 0	inactive: 0	inactive: 0	inactive: 0	inactive: 0
CC1=C(C(=O)Nc2ccc3[nH]ncc3c2)C(c2ccc(F)cc2)NC(=O)N1 (stereo not given) (10 µM)	inactive: 0	inactive: 0	inactive: 0	inactive: 0	inactive: 0	inactive: 0	inactive: 0	inactive: 0	inactive: 0	inactive: 0
Nc1nc2cc(-c3ccc4ncc(C(=O)N5CCOCC5)n4c3)ccc2o1 [Serabelisib] (10 µM)	inactive: 0	inactive: 0	inactive: 0	inactive: 0	inactive: 0	inactive: 0	inactive: 0	inactive: 0	inactive: 0	inactive: 0
c1ccc(-c2nn3c(c2-c2ccnc4cc(OCCN5CCOCC5)ccc24)CCC3)nc1 (10 µM)	inactive: 0	inactive: 0	inactive: 0	inactive: 0	inactive: 0	inactive: 0	inactive: 0	inactive: 0	inactive: 0	inactive: 0
O=C(CO)N1CCC(c2n[nH]c(-c3ccc(Cl)cc3)c2-c2ccncn2)CC1 (10 µM)	inactive: 0	inactive: 0	inactive: 0	inactive: 0	inactive: 0	inactive: 0	inactive: 0	inactive: 0	inactive: 0	inactive: 0
Fc1c(Br)cccc1Nc1ncnc2cc3c(cc12)OCCO3 (2.5 µM)	inactive: 0	inactive: 0	inactive: 0	inactive: 0	inactive: 0	inactive: 0	inactive: 0	inactive: 0	inactive: 0	inactive: 0
C=CC(=O)Nc1cccc(-n2c(=O)cc(C)c3cnc(Nc4ccc(OCCN(C)C)cc4OC)nc32)c1 (10 µM)	inactive: 0	inactive: 0	inactive: 0	inactive: 0	inactive: 0	inactive: 0	inactive: 0	inactive: 0	inactive: 0	inactive: 0
CCOC(=O)c1c2c3c(cccc3[nH]c1=O)C(=O)c1ccccc1-2 (10 µM)	inactive: 0	inactive: 0	inactive: 0	inactive: 0	inactive: 0	inactive: 0	inactive: 0	inactive: 0	inactive: 0	inactive: 0
CN1CCN(CCCNc2ncc(Cl)c(-c3cc4c(C(=O)NC5CC5)cccc4s3)n2)CC1 (10 µM)	inactive: 0	inactive: 0	inactive: 0	inactive: 0	inactive: 0	inactive: 0	inactive: 0	inactive: 0	inactive: 0	inactive: 0
COc1cc(C(=O)N2CCC(N3CCN(C)CC3)CC2)ccc1Nc1ncc2c(n1)N(C)c1ccccc1C(=O)N2C (10 µM)	inactive: 0	inactive: 0	inactive: 0	inactive: 0	inactive: 0	inactive: 0	inactive: 0	inactive: 0	inactive: 0	inactive: 0
O=C(NOCCO)c1ccc2cncn2c1Nc1ccc(I)cc1F (10 µM)	inactive: 0	inactive: 0	inactive: 0	inactive: 0	inactive: 0	inactive: 0	inactive: 0	inactive: 0	inactive: 0	inactive: 0
O=C(Nc1ccc(Cl)c(Cl)c1)Nc1ccc2nnsc2c1 (10 µM)	inactive: 0	inactive: 0	inactive: 0	inactive: 0	inactive: 0	inactive: 0	inactive: 0	inactive: 0	inactive: 0	inactive: 0
CCc1c(C)sc(NC(=S)NC(=O)c2ccc(Cl)cc2)c1C(N)=O (10 µM)	inactive: 0	inactive: 0	inactive: 0	inactive: 0	inactive: 0	inactive: 0	inactive: 0	inactive: 0	inactive: 0	inactive: 0
COc1c(O)cc2oc3cc(O)c(CC=C(C)C)c(O)c3c(=O)c2c1CCC(C)(C)O [Garcinone D] (2.5 µM)	inactive: 0	inactive: 0	inactive: 0	inactive: 0	inactive: 0	inactive: 0	inactive: 0	inactive: 0	inactive: 0	inactive: 0
CCOc1ccccc1C=C1C(=O)Nc2ccccc21 (10 µM)	inactive: 0	inactive: 0	inactive: 0	inactive: 0	inactive: 0	inactive: 0	inactive: 0	inactive: 0	inactive: 0	inactive: 0
Cn1cc(-c2cc3c(N4CCN(c5ncc([C@@](C)(N)c6ccc(F)cc6)cn5)CC4)ncnn3c2)cn1 [Avapritinib] (2.5 µM)	inactive: 0	inactive: 0	inactive: 0	active: 1	inactive: 0	inactive: 0	inactive: 0	inactive: 0	inactive: 0	inactive: 0

In the list so far, 2 have a CF3 group:
SMILES	kinase-Nluc reporter destabilization hit call (IRAK3)	kinase-Nluc reporter destabilization hit call (JAK1)	kinase-Nluc reporter destabilization hit call (LCK)	kinase-Nluc reporter destabilization hit call (LIMK1)	kinase-Nluc reporter destabilization hit call (LIMK2)	kinase-Nluc reporter destabilization hit call (LMTK2)	kinase-Nluc reporter destabilization hit call (LYN)	kinase-Nluc reporter destabilization hit call (MAP2K1)	kinase-Nluc reporter destabilization hit call (MAP2K2)	kinase-Nluc reporter destabilization hit call (MAP4K2)
N#C/C(=C(/N)Sc1ccc(N)cc1)c1ccccc1C(F)(F)F (10 µM)	inactive: 0	inactive: 0	inactive: 0	inactive: 0	inactive: 0	inactive: 0	inactive: 0	inactive: 0	inactive: 0	inactive: 0
O=C(O)c1ccccc1Nc1cccc(C(F)(F)F)c1 [Flufenamic acid] (10 µM)	inactive: 0	inactive: 0	inactive: 0	inactive: 0	inactive: 0	inactive: 0	inactive: 0	inactive: 0	inactive: 0	inactive: 0
